{
  "sequences": {"note": "By UniProt entry, the sequences of proteins in these tests, tags left out.", "UniProt E9Q401": "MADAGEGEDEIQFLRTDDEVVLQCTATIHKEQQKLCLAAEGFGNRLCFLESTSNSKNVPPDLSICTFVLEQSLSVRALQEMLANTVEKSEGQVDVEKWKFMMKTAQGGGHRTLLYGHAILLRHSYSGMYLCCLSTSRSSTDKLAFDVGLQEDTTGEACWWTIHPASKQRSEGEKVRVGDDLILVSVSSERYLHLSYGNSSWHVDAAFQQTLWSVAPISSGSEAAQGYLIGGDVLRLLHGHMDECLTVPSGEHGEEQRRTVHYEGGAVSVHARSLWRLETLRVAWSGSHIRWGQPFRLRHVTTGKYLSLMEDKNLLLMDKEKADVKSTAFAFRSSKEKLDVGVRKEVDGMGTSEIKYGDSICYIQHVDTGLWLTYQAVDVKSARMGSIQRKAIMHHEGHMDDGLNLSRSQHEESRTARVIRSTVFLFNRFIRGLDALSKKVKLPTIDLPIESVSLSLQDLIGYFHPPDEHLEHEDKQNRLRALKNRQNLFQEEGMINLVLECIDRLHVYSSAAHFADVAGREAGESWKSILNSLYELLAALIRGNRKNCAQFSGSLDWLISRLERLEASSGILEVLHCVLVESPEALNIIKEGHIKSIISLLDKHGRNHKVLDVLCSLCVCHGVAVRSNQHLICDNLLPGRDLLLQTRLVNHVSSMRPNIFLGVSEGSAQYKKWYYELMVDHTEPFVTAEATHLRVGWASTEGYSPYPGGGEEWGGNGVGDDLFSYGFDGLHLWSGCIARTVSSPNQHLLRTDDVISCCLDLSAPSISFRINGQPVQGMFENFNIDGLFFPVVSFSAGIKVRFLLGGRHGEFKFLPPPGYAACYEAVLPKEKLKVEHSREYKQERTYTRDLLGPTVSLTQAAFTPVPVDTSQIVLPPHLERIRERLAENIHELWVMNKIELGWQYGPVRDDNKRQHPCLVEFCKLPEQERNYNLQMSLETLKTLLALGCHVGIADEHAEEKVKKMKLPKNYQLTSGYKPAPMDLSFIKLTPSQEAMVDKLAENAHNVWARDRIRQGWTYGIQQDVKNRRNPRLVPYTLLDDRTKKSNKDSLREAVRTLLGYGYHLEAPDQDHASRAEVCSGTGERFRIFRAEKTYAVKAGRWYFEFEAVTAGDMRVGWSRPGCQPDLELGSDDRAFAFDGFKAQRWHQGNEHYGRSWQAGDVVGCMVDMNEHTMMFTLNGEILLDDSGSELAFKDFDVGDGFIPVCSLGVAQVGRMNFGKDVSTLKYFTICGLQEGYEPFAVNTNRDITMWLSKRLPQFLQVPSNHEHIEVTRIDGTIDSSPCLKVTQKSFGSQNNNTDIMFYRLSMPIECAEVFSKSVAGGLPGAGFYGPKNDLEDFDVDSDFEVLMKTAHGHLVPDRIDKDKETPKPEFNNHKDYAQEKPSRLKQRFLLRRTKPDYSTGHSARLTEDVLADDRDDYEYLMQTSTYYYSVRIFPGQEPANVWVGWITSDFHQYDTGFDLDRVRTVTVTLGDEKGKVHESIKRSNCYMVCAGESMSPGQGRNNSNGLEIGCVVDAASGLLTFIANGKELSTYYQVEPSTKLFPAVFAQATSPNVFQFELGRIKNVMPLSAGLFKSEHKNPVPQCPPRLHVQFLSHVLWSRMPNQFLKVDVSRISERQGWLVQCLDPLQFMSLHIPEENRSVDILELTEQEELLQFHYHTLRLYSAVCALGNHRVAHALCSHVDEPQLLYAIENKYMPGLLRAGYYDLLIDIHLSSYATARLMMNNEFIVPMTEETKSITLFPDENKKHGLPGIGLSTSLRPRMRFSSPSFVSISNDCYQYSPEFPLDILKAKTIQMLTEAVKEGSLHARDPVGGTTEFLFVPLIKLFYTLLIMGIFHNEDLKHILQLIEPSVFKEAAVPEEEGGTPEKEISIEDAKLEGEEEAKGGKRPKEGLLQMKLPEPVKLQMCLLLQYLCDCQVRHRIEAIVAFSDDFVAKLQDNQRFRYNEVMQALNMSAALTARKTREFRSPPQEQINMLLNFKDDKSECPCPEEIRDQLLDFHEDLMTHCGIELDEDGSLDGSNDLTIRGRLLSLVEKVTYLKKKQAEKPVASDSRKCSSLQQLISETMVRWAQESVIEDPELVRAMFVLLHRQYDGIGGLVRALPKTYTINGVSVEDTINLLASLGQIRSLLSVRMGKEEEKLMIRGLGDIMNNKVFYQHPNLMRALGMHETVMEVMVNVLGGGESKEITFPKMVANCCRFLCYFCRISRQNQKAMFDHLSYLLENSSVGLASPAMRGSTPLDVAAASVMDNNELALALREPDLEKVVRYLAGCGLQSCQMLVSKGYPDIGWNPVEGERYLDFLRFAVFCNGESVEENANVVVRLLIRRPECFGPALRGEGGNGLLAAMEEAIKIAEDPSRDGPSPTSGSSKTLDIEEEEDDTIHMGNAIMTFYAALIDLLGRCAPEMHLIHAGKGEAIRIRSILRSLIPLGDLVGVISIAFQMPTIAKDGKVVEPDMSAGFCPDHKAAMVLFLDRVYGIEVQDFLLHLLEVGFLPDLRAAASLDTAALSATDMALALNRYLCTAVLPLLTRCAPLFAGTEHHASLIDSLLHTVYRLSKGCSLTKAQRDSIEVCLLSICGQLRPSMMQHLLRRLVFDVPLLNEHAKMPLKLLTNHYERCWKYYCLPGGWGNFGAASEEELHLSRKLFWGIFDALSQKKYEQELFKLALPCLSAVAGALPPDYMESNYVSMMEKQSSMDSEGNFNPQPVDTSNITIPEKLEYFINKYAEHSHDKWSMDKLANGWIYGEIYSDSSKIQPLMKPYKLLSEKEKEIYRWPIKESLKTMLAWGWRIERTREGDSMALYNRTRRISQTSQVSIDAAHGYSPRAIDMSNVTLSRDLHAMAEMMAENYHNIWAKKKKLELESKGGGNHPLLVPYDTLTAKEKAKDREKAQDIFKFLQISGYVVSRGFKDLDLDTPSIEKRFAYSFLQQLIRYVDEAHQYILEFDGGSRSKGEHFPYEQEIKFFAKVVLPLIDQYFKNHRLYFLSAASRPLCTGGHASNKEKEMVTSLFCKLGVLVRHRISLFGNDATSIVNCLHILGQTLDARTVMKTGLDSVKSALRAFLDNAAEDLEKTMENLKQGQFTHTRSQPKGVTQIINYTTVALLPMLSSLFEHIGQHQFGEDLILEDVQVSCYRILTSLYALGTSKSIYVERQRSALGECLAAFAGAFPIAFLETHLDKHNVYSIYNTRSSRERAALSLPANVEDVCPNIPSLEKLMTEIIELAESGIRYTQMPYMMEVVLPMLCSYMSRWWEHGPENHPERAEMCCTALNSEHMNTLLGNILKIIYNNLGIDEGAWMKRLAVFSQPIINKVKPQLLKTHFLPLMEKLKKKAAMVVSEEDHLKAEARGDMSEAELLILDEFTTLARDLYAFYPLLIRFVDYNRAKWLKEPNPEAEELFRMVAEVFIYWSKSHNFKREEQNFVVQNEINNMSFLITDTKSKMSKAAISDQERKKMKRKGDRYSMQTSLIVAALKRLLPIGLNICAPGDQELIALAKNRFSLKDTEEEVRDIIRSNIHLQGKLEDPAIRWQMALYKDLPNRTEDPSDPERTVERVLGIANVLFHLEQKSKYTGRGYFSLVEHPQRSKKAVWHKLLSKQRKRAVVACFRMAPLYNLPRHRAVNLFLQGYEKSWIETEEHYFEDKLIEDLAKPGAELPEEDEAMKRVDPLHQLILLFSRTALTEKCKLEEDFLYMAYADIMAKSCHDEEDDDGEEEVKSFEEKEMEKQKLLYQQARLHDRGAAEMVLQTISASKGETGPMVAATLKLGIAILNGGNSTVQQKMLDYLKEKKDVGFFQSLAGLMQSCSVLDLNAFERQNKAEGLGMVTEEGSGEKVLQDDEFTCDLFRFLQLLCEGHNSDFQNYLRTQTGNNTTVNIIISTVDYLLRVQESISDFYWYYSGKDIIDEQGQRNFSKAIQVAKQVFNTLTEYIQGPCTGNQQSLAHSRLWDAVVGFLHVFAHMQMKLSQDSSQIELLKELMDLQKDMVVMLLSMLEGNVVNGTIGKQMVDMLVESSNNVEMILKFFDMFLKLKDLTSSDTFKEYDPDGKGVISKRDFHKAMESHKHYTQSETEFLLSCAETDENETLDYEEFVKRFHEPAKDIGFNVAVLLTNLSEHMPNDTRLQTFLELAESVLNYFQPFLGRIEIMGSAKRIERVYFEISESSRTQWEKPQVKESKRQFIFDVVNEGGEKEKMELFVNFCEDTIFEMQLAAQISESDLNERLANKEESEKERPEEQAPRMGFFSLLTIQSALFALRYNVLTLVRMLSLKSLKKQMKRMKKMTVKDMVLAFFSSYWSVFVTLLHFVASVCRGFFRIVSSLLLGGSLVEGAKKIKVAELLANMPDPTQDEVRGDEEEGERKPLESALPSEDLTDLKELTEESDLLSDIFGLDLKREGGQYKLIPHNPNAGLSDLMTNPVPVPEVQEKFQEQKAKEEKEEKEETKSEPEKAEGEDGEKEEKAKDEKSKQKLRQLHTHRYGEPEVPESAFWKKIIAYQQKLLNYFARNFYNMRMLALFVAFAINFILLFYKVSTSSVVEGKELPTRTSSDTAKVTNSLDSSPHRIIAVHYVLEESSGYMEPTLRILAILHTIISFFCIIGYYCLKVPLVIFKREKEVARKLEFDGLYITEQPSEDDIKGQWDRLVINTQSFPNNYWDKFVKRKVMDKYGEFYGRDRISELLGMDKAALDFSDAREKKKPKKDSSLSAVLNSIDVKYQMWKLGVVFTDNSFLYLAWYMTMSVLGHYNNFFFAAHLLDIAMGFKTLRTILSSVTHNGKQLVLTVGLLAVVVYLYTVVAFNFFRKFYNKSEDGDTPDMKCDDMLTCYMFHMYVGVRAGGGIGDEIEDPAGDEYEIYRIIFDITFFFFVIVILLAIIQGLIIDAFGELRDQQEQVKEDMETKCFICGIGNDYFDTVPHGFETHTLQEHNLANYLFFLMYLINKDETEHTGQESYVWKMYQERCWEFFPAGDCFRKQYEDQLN"},
  "source": "paper PMC5143404",
  "molecules": {"B1": {"name": "junctophilin 3 (mouse) (protein, UniProt Q9ET77 1-744)", "chain": "MSSGGRFNFDDGGSYCGGWEDGKAHGHGVCTGPKGQGEYTGSWSHGFEVLGVYTWPSGNTYQGTWAQGKRHGIGLESKGKWVYKGEWTHGFKGRYGVRECTGNGAKYEGTWSNGLQDGYGTETYSDGGTYQGQWVGGMRQGYGVRQSVPYGMAAVIRSPLRTSINSLRSEHTNGAALHPDASPAVAGSPAVSRGGFVLVAHSDSEILKSKKKGLFRRSLLSGLKLRKSESKSSLASQRSKQSSFRSEAGMSTVSSTASDIHSTISLGEAEAELAVIEDDIDATTTETYVGEWKNDKRSGFGVSQRSDGLKYEGEWVSNRRHGYGCMTFPDGTKEEGKYKQNVLVSGKRKNLIPLRASKIREKVDRAVEAAERAATIAKQKAEIAASRTSHSRAKAEAALTAAQKAQEEARIARITAKEFSPSFQHRENGLEYQRPKHQMSCDDIEVLSTGTPLQQESPELYRKGTTPSDLTPDDSPLQSFPASPTSTPPPAPASRTKMAHFSRQVSVDEERSGDIQMLLEGRGGDYARNSWGEEKAGASRGIRSGALRSGQPTEDFRTRGSGHKQPGNPKPRERRTESPTTFSWTSHHRAGNPCSGGPKLLEPDEEQLSNYKLEMKPLLRMDACPQDTHPQRRRHSRGAGGDRGFGLQRLRSKSQNKENLRPASSAEPTVQKLESLRLGDRPEPRLLRWDLTFSPPQKSLPVALESDEETGDELKSSTGSAPILVVMVILLNIGVAILFINFFI"}, "B2": {"name": "junctophilin 3 (human) (protein, UniProt Q8WXH2 1-748)", "chain": "MSSGGRFNFDDGGSYCGGWEDGKAHGHGVCTGPKGQGEYTGSWSHGFEVLGVYTWPSGNTYQGTWAQGKRHGIGLESKGKWVYKGEWTHGFKGRYGVRECAGNGAKYEGTWSNGLQDGYGTETYSDGGTYQGQWVGGMRQGYGVRQSVPYGMAAVIRSPLRTSINSLRSEHTNGTALHPDASPAVAGSPAVSRGGFVLVAHSDSEILKSKKKGLFRRSLLSGLKLRKSESKSSLASQRSKQSSFRSEAGMSTVSSTASDIHSTISLGEAEAELAVIEDDIDATTTETYVGEWKNDKRSGFGVSQRSDGLKYEGEWASNRRHGYGCMTFPDGTKEEGKYKQNILVGGKRKNLIPLRASKIREKVDRAVEAAERAATIAKQKAEIAASRTSHSRAKAEAALTAAQKAQEEARIARITAKEFSPSFQHRENGLEYQRPKRQTSCDDIEVLSTGTPLQQESPELYRKGTTPSDLTPDDSPLQSFPTSPAATPPPAPAARNKVAHFSRQVSVDEERGGDIQMLLEGRAGDCARSSWGEEQAGGSRGVRSGALRGGLLVDDFRTRGSGRKQPGNPKPRERRTESPPVFTWTSHHRASNHSPGGSRLLELQEEKLSNYRMEMKPLLRMETHPQKRRYSKGGACRGLGDDHRPEDRGFGVQRLRSKAQNKENFRPASSAEPAVQKLASLRLGGAEPRLLRWDLTFSPPQKSLPVALESDEENGDELKSSTGSAPILVVMVILLNIGVAILFINFFI"}},
  "key": {"[1]": {"target": "T1, junctophilin 3 (human) (human (endogenous in pancreatic tissue)) (UniProt Q8WXH2)", "T1 sequence": "B2 chain", "experiment": "co-IP; human pancreatic tissue (n=3); precipitated with anti-RyR2 or anti-JPH3 antibodies, coimmunoprecipitates analysed by immunoblotting with anti-JPH3 or anti-RyR1, 2, 3 antibodies"}, "[2]": {"target": "type 2 ryanodine receptor (mouse) (mouse (endogenous in pancreatic tissue)) (UniProt E9Q401)", "experiment": "co-IP; mouse pancreatic tissue (n=5); precipitated with anti-RyR2 or anti-JPH3 antibodies, coimmunoprecipitates analysed by immunoblotting with anti-JPH3 or anti-RyR1, 2, 3 antibodies"}, "[3]": {"target": "type 2 ryanodine receptor (human) (human (endogenous in pancreatic tissue)) (UniProt Q92736)", "experiment": "co-IP; human pancreatic tissue (n=3); precipitated with anti-RyR2 or anti-JPH3 antibodies, coimmunoprecipitates analysed by immunoblotting with anti-JPH3 or anti-RyR1, 2, 3 antibodies"}},
  "note": "No constants are given. Whether binding was seen depends on the method and setting. In cells and extracts the contact can be indirect. Some results given as binding are weak or reduced against the parent protein; the word gives no strength.",
  "data": [
    {"molecule": "type 2 ryanodine receptor (human) (from UniProt Q92736 1-4967)", "values": [
      {"measurement": "binding", "setting": "[1]", "result": "binds"}
    ]},
    {"molecule": "B1", "values": [
      {"measurement": "binding", "setting": "[2]", "result": "binds"}
    ]},
    {"molecule": "B2", "values": [
      {"measurement": "binding", "setting": "[3]", "result": "binds"}
    ]}
  ]
}
